Data on four molecules can be found in patent EP3838286B1, “ANTIMICROBIAL PEPTIDE FROM POLISTES GALLICUS VENOM AND ITS ANALOGS” (Latoxan, priority 2019, dated 2021).

In data set [1] the test system is IMR90. The experiment in a line: Cytotoxicity assay (resazurin). Format: cell-based, human. Conditions: IC50 IMR90 divided by MIC P. aeruginosa. The protocol: (§1) Normal human cells used were BEAS-2B (ATCC CRL-9609), IMR-90 (ATCC CCL-186) and Human Umbilical Vein Endothelial Cells (HUVEC) (from Sigma-Aldrich) corresponding respectively to human normal lung epithelial, normal lung fibroblast cells and human normal endothelial cells. All cells except HUVEC cells were cultured in Dulbecco's modified essential medium (DMEM) supplemented with 10% fetal calf serum (FCS), 1% L-glutamine and 1% antibiotics (all from Invitrogen). HUVEC cells were cultured in specific endothelial media (from Sigma Aldrich). Cells were seeded onto […] maintained in a 5% CO2 incubator at 37 °C. Cells grown on 25 cm^2 flasks were detached using trypsin-EDTA solution (from Thermofisher), counted using Mallassez counting chamber and seeded into 96-well cell culture plates (Greiner bio-one) at approximately 10,000 cells per well. The cells were left to grow for 48-72 h at 37 °C in a 5% CO2 incubator until they reached confluence. Plates were then aspirated and increasing concentrations of peptides diluted in culture media were added to the cells for 48 h at 37 °C in a 5% CO2 incubator. At the end of the incubation, wells were emptied and cell viability was evaluated using Resazurin based in vitro toxicity assay kit (from Sigma-Aldrich) following manufacturer's instructions. Briefly, Resazurin stock solution was diluted 1:10 in sterile PBS containing calcium and magnesium (PBS, pH 7.4) and empty wells were filled with 100 µL of the diluted solution. After 4 h incubation at 37 °C, fluorescence intensity was measured using microplate reader (Synergy Mx, Biotek) with an excitation wavelength of 530 nm and an emission wavelength of 590 nm. The fluorescence values were normalized by the controls (buffer treated cells) and expressed as percent viability. The IC50 values of peptides on cell viability (i.e. the concentration of derivative causing a reduction of 50% of cell viability) were determined using GraphPad® Prism 7 software. t-Test and two way ANOVA analyses were used to address the significant differences between mean values with significance set at p < 0.05.

Data set [2] has as its system BEAS. The experiment in a line: Cytotoxicity assay (resazurin). In kind it is cell-based, human. Particulars: IC50 BEAS divided by MIC P. aeruginosa. The protocol:
as §1

Data set [3] deals with HUVEC. Description: Cytotoxicity assay (resazurin). In kind it is cell-based, human. Conditions: IC50 HUVEC divided by MIC P. aeruginosa. The protocol:
as §1

The subject of data set [4] is human erythrocytes. The experiment in a line: Hemolytic activity assay. Format: cell-based. Here is the method: The hemolytic activity of each peptide was determined by the leakage of hemoglobin from human erythrocytes (obtained from Divbioscience, NL) as previously described (Oyama et al., 2017 Biofilms Microbiomes, Dec 1;3:33).
Briefly, human erythrocytes were washed 3 times with phosphate buffer saline (PBS) and concentrated using centrifugation at 800 g for 5 min. Human erythrocytes were then resuspended in PBS at a final concentration of 8 %. 100 µl of human erythrocytes were then added per well of sterile 96 well microplate already containing 15 µl of serially diluted antimicrobials (1:2 in distilled water). After 1 h at 37°C, the microplate was centrifuged at 800 g for 5 min. 100 µl were then carefully collected and transferred to a new 96 well microplate and OD was measured at 405 nm. Hemolysis caused by peptides was expressed as percentage of hemolysis; Triton-X100 at 0.1 % (v:v) was used as positive control and gave 100 % hemolysis. Hemolysis rate was determined as below: Hemolysis rate (%) = (A−A2)/(A1−A2) × 100% [formula] where A is the absorbance of indicator mixtures with different factors, A1 and A2 are the positive control, and the negative control, respectively.

Square brackets hold non-standard residues; d marks the D form. Ends that are not written are not given here. Peptide text beside a SMILES is read from it.

Take `CC[C@@H](C)[C@@H](N)C(=O)N[C@H](CC(C)C)C(=O)N[C@H](CCCCN)C(=O)N[C@H](C)C(=O)N[C@@H](C(=O)N[C@H](CCCCN)C(=O)N[C@H](CCCCN)C(=O)N[C@H](CC(C)C)C(=O)N[C@H](CC(C)C)C(=O)N[C@H](CCCCN)C(N)=O)[C@H](C)CC` [(i1k10*) enantio, ilkaikkllk] (H-[dI][dL][dK][dA][dI][dK][dK][dL][dL][dK]-NH2): the “Therapeutic index (IC50s compared to MIC P. aeruginosa) IMR90” value in data set [1] is recorded as 116.7. The “Therapeutic index (IC50s compared to MIC P. aeruginosa) BEAS” value in data set [2] worked out at 232.3. Besides, the “Therapeutic index (IC50s compared to MIC P. aeruginosa) HUVEC” value in data set [3] amounted to 218.5.
In the case of `CC[C@@H](C)[C@@H](N)C(=O)N[C@H](CC(C)C)C(=O)N[C@H](CCCCN)C(=O)N[C@H](C)C(=O)N[C@@H](C(=O)N[C@H](CCCCN)C(=O)N[C@H](CCCCN)C(=O)N[C@H](CC(C)C)C(=O)N[C@H](CC(C)C)C(=O)N[C@H](CCCCN)C(=O)N[C@H](CC(N)=O)C(N)=O)[C@H](C)CC` [LTX-D (gallicune-1), ilkaikkllkn] (H-[dI][dL][dK][dA][dI][dK][dK][dL][dL][dK][dN]-NH2), in data set [1], the “Therapeutic index (IC50s compared to MIC P. aeruginosa) IMR90” value stood at 435.4. Moreover, the “Therapeutic index (IC50s compared to MIC P. aeruginosa) BEAS” value in data set [2] turned out to be 562.2. The “Therapeutic index (IC50s compared to MIC P. aeruginosa) HUVEC” value in data set [3] is on record as 579.3.
For `CC[C@@H](C)[C@@H](N)C(=O)N[C@@H](CC(C)C)C(=O)N[C@@H](CCCCN)C(=O)N[C@@H](C)C(=O)N[C@H](C(=O)N[C@@H](CCCCN)C(=O)N[C@@H](CCCCN)C(=O)N[C@@H](CC(C)C)C(=O)N[C@@H](CC(C)C)C(=O)N[C@@H](CCCCN)C(=O)N[C@H](CC(N)=O)C(N)=O)[C@@H](C)CC` [LTX-gallicune-1(i1D-n11D)] (H-[dI]LKAIKKLLK[dN]-NH2), the “Therapeutic index (IC50s compared to MIC P. aeruginosa) IMR90” value in data set [1] is 241.4. Besides, in data set [2], the “Therapeutic index (IC50s compared to MIC P. aeruginosa) BEAS” value is on record as 260.5. Besides, the “Therapeutic index (IC50s compared to MIC P. aeruginosa) HUVEC” value in data set [3] stood at 290.3.
In the case of RLLGLWLW-NH2 [LTX-gallicune-2 (R1W8)], the “Therapeutic Index (MHC50/MIC) B. subtilis” value in data set [4] (MHC50 on human erythrocytes divided by MIC for B. subtilis) stood at 18. Besides, the “Therapeutic Index (MHC50/MIC) S. aureus” value in data set [4] (MHC50 on human erythrocytes divided by MIC for S. aureus) was found to be 18.
